Measured values taken from patent US9573956B2, “Compounds as dual inhibitors of phosphodiesterases and histone deacetylases” (FUNDACIÓN PARA LA INVESTIGACIÓN MÉDICA APLICADA, priority 2013, dated 2017).

By UniProt entry, the sequences of proteins in these tests, tags left out. Residues count along the entry.
UniProt O76083, 1-533 isoform 2: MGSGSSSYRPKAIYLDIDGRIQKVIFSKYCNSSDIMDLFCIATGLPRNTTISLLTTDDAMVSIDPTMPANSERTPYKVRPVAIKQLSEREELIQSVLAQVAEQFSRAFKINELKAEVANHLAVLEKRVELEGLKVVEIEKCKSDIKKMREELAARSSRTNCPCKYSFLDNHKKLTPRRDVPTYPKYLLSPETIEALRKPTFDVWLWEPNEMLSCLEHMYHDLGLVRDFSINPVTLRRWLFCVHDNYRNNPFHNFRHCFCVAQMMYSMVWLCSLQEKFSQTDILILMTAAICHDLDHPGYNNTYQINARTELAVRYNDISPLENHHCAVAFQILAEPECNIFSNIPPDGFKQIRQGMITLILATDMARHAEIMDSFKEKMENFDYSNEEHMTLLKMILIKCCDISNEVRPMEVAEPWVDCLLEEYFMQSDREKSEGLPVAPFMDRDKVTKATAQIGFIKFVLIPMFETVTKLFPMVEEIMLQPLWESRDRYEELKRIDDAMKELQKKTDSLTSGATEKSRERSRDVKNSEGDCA
UniProt Q13547, whole entry: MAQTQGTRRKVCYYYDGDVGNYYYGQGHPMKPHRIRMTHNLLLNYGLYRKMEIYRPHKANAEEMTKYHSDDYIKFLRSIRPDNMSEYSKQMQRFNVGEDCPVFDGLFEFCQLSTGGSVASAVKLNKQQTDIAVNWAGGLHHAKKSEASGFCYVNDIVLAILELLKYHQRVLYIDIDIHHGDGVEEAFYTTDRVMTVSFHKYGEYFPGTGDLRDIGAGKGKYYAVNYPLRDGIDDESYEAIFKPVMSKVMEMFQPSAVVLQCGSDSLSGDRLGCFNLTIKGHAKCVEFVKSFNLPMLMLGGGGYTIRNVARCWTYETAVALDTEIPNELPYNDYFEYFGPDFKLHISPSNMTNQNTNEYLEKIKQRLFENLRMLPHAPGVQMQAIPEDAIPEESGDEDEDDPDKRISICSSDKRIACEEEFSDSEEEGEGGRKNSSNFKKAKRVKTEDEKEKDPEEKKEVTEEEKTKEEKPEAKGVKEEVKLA

Legend:
Type in all cases: biochemical
PDE5A = PDE5A (Homo sapiens, UniProt O76074); experiment: PDE enzyme activity assay (HTRF cGMP), PDE5A; settings: read-out: PDE5A1 inhibition (IC50); recombinant enzyme
PDE9A isoform b = PDE9A isoform b (Homo sapiens, UniProt O76083); experiment: PDE enzyme activity assay (HTRF cGMP), PDE9A; settings: read-out: PDE9A inhibition (IC50); recombinant enzyme
HDAC1 = HDAC1 (Homo sapiens, UniProt Q13547); experiment: HDAC enzyme activity assay (fluorogenic substrate), HDAC1; settings: read-out: HDAC1 inhibition (IC50); recombinant enzyme

- IC50 (PDE5A): > 10 µM
- IC50 (PDE9A isoform b): < 0.01 µM
- IC50 (HDAC1): 0.01 to 1 µM
Structure (SMILES): C[C@@H]1CN(Cc2ccc(/C=C/C(=O)NO)cc2)C[C@H]1c1nc2c(cnn2C2CCOCC2)c(=O)[nH]1 (relative stereo)

The match of structure and compound is tentative.
